Source: patent US20260062463A1
Residue numbers refer to the chain shown, from its start. No constants are given. Whether binding was seen depends on the method and setting. Binding calls can cover weak binding; strength is not graded here.

Tests used:
[1] = biological target: AAV8; test: SPR, AAV amine-coupled to a CM5 chip, nanobody injected at 100 to 1.5625 nM (top to bottom)
[2] = biological target: AAV9; test: as above
[3] = biological target: AAV5; test: as above
[4] = biological target: AAV8 (AAV8); test: sandwich ELISA, A4-040 coated as capture ligand, HRP-A4-021 as detector
[5] = biological target: AAV8 (AAV8); test: sandwich ELISA: A4-040 coated as capture ligand, AAV8 standards, detection with HRP-conjugated A4-021, TMB, OD450
[6] = biological target: AAV8 (AAV8); test: direct ELISA and sandwich ELISA, HRP-conjugated A4-021 as detector
[7] = biological target: AAV8 (AAV8); test: direct ELISA: AAV8 standards coated on the plate, detection with HRP-conjugated A4-021, TMB, OD450
[8] = biological target: AAV8 (AAV8); test: SPR, AAV on CM5 chip
[9] = biological target: AAV5 (AAV5); test: SPR, AAV on CM5 chip
[10] = biological target: AAV9 (AAV9); test: SPR, AAV on CM5 chip

B1: A4-001 (VHH)
VHH: VQLQESGGGLVQPGGSLRLSCAASGRSFSINTMGWYRQAPGKQRELVATVTRGGSTNYAGSVKGRFTISRDNAKNTVYLQMNSLRPEDTAVYYCHIDEVRQSSWTTSNIWGQGTQVTVSS
Which results are given for B1?
binding [1]: binds; binding [2]: binds; binding [3]: binds

B2: A4-003 (VHH)
VHH: B1 VHH with A22V, T49A
What does the source list for B2?
binding [1]: binds; binding [2]: binds; binding [3]: binds

B3: A4-002 (VHH)
VHH: B1 VHH with T49A
Which results are given for B3?
binding [1]: binds; binding [2]: binds; binding [3]: binds

B4: A4-004 (VHH)
VHH: B1 VHH with R26S, S27R, T49A
How did the binding [1] turn out when B4 was run?
The binding was “binds”.

And the binding [2]?
Its binding is “binds”.

What about the binding [3] of the same binder?
The binding was “binds”.

B5: A4-040 (VHH)
VHH: B1 VHH with S27I, G60D, I96V, V99I, I109L
B5 was tested. Which binding [4] did it give?
Its binding is “binds”.

And the binding [5]?
Its binding is “binds”.

B6: A4-021 (VHH)
VHH: B1 VHH with P13A, R26S, S27T, V50I, S55N, G60D, I96V
modifications: HRP-conjugated (site not stated)
Which results are given for B6?
binding [6]: binds; binding [7]: binds; binding [5]: binds

B7: A4-H2 (VHH)
VHH: VQLQASGGGFVQPGGSLRLSCAASGRSFSINTMGWFRQAPGKEREFVAVVTRGGSTYYADSVKGRFTISRDNSKNTVYLQMNSLRAEDTATYYCHIDEVRQSSWTTSNIWGQGTQVTVSS
Which binding [8] does the source give for B7 here?
Its binding is “binds”.

And the binding [9]?
Its binding is “binds”.

And the binding [10]?
Its binding is “binds”.

B8: A4-H1 (VHH)
VHH: B7 VHH with Q4V, A5E, F10L, E43G, R44L, F46A, V49I, V77L, T91V, Q115L
B8 was tested. Which binding [8] did it give?
Its binding is “binds”.

What about the binding [9] of the same binder?
Its binding is “binds”.

And the binding [10]?
The binding was “binds”.
